Measured values from US20110263478A1, “SUR1 INHIBITORS FOR THERAPY” (priority 2008, published 2011).
No constants are given. Whether binding was seen depends on the method and setting. Binding seen in cells or lysates may run through a third protein. Some binding calls cover weakened binding; strength is not graded here.

Sequences of proteins named here, by UniProt entry; tags and fusion partners are left off.
UniProt Q09429: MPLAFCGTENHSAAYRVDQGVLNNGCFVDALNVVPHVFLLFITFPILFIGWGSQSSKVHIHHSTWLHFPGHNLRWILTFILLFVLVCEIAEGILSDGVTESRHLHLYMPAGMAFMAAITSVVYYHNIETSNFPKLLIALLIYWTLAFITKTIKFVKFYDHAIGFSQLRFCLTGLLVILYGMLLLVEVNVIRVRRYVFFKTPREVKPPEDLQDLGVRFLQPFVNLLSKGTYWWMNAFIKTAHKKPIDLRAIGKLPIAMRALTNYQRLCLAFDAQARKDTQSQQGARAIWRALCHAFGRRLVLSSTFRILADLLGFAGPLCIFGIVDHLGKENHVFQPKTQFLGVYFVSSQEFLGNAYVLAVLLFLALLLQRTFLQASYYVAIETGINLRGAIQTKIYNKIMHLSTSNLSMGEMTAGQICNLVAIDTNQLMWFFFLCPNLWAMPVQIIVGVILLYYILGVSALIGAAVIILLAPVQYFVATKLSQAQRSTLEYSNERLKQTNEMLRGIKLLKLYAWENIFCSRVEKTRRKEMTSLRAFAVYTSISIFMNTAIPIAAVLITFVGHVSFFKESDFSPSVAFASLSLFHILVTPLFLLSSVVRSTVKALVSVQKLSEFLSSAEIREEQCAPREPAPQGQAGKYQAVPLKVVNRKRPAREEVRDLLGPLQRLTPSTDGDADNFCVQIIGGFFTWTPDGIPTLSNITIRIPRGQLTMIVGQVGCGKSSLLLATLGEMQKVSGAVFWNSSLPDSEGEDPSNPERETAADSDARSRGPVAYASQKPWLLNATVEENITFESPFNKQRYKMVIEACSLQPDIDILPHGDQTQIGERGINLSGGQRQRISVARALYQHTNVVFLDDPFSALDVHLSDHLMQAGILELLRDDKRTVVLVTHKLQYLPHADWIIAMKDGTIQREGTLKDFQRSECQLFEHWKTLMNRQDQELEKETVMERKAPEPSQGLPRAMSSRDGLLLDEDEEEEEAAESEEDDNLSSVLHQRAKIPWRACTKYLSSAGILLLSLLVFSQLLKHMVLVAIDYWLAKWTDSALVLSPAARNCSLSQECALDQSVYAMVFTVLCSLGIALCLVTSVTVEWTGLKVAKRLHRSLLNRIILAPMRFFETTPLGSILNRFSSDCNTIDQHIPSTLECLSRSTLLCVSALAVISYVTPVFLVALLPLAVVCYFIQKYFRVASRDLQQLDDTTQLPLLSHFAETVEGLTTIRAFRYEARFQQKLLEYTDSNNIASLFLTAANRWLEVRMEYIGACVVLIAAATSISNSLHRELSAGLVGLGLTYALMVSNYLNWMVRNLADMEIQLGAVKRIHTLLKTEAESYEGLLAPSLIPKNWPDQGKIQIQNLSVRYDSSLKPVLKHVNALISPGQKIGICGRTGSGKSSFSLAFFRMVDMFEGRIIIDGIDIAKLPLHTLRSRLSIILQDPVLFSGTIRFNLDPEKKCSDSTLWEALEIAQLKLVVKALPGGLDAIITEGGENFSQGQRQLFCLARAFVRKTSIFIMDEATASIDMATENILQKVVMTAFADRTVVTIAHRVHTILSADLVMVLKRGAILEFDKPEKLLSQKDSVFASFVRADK
UniProt Q9ESQ5: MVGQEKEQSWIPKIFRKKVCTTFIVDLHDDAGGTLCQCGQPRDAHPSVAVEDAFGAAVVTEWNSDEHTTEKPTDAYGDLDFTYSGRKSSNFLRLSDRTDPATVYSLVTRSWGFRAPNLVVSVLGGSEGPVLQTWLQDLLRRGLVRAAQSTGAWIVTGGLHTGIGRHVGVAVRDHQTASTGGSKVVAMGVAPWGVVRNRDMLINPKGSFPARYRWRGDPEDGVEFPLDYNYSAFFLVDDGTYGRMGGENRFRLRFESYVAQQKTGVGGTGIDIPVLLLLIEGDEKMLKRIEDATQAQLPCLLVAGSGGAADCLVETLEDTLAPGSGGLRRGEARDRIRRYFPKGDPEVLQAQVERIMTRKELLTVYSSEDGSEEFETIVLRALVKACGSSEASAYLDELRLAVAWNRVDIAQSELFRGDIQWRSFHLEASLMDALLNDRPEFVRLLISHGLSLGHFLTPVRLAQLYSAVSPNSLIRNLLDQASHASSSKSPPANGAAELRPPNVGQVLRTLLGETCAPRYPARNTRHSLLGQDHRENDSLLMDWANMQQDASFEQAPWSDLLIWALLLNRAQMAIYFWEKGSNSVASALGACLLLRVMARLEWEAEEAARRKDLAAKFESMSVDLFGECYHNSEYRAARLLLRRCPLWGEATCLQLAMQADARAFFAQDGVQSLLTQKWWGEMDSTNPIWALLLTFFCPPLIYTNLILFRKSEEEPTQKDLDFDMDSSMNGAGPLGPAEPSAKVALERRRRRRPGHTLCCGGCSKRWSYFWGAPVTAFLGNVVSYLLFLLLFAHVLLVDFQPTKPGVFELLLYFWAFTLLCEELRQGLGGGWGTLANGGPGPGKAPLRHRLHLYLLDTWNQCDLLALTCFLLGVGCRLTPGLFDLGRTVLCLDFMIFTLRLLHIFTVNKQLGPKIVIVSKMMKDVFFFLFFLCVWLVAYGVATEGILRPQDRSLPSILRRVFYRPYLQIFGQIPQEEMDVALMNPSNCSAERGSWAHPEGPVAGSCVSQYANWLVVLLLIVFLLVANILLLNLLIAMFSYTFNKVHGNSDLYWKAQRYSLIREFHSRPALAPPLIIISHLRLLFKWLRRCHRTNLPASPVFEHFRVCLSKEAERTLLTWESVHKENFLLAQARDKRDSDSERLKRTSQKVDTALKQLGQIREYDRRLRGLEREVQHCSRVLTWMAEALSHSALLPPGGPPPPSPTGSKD

What was measured:
[1] = target: sulfonylurea receptor 1 (SUR1), rat, endogenous in CNS tissue lysate (rat) (UniProt Q09429); test: co-immunoprecipitation with SUR1 antibody, Western blot for TRPM4, figure legend
[2] = target: sulfonylurea receptor 1 (SUR1), rat, endogenous in CNS tissue lysate (rat) (UniProt Q09429); test: co-immunoprecipitation from injured tissue lysate with anti-SUR1 antibody, Western blot for TRPM4

“transient receptor potential melastatin 4 (TRPM4), rat, endogenous in injured tissue lysate (from UniProt Q9ESQ5 1-1208)” was tested, and the binding [1] was “binds” and the binding [2] was “binds”.
